{"source": "paper PMC9598724", "binders": {"B1": {"name": "rOlyA point mutant W96A (protein, UniProt P83467 1-138)", "chain": "MAYAQWVIIIIHNVGSQDVKIKNLKASWGKLHADGDKDAEVSASNYEGKIIKPDEKLQINACGRSDAAEGTTGTFDLVDPADGDKQVRHFYWDCPAGSKTNTWTVSGSNTKWMIEYSGQNLDSGALGTITVDTLKKGN"}}, "target": "human β-tubulin (human)", "assay": "ELISA; solid-phase binding assay: 50 ng human β-tubulin or α-tubulin coated on ELISA plates in carbonate-bicarbonate buffer pH 9.5, blocked with 3% BSA; rOlyA, mutants or OlyA6-mCherry added in TBS, 1 h at 37 °C; rabbit anti-rOlyA and goat anti-rabbit IgG-HRP, OD 450 nm; both purified", "note": "These are yes or no findings as the source states them, for the method shown. Binding calls can cover weak binding; strength is not graded here.", "data": [{"binder": "B1", "values": [{"measurement": "binding", "value": "binds"}]}]}
